{"source": "paper PMC12040169", "about": "(PLOS Biology, 2025)", "note": "Some of the results follow.", "data": [{"system": "T1, CTL2-GFP (C. trachomatis L2/434/Bu, GFP-expressing)", "T1 construct": "L2/434/Bu, GFP-expressing", "parameters": "species or system HeLa; Intracellular C. trachomatis growth in HeLa cells, bulk GFP fluorescence relative to DMSO", "conditions": "bulk GFP, single well; 28.5 h, 10 µM; inhibitor", "units": {"% of control remaining": "%"}, "values": [{"smiles": "O=C(NCc1cccnc1)c1ccc(-c2cccc(Cl)c2Cl)o1", "note": "[CBK112211]", "% of control remaining": 82.8408}, {"smiles": "O=C(Nc1cccnc1)N1CCCCC1CO", "note": "(stereo not drawn) [CBK155990]", "% of control remaining": 75.5409}, {"smiles": "Clc1cccc(-n2cnnn2)c1Cl", "note": "[CBK027665]", "% of control remaining": 160.245}, {"smiles": "O=C(Nc1nc(-c2ccccc2)ns1)c1ccncc1", "note": "[CBK113234]", "% of control remaining": 100}, {"smiles": "COC(=O)c1ccc(NC(=O)C2Cc3ccccc3CN2S(=O)(=O)c2cccs2)cc1", "note": "(stereo not drawn) [CBK265693]", "% of control remaining": 100}, {"smiles": "Cc1nc(-c2ccc(NC(=O)CC(C)n3cccn3)cc2)cs1", "note": "(stereo not drawn) [CBK281403]", "% of control remaining": 114.755}, {"smiles": "Cc1cc2c(s1)c1cnn(CC(=O)N3CCCCC3)c(=O)c1n2C", "note": "[CBK284187]", "% of control remaining": 115.005}, {"smiles": "CCC(=O)c1c(-c2ccccc2)nc2n(C)c3ccccc3n12", "note": "[CBK262488]", "% of control remaining": 81.6528}, {"smiles": "Cc1nc(N(C)C)ncc1C(=O)NCCSc1nnnn1C", "note": "[CBK306673]", "% of control remaining": 120.393}, {"smiles": "CN(C)CCOC(=O)C1CCCCCN1C", "note": "(stereo not drawn) [CBK278175G]", "% of control remaining": 100}, {"smiles": "CN(C)c1ccc([N+](=O)[O-])cc1/C=N/NC(=O)CCc1ccccc1O", "note": "[CBK263257]", "% of control remaining": 125.915}, {"smiles": "CC(C)N(C(=O)N1CCC(c2cccnc2)CC1)C(C)C", "note": "[CBK283850]", "% of control remaining": 112.609}, {"smiles": "CC(=O)N1CCN(c2ccccc2NC(=O)c2ccc(OCc3ccccc3)cc2)CC1", "note": "[CBK269775]", "% of control remaining": 95.743}, {"smiles": "COc1cccc(NC(=O)CN2CCN(c3nc4ccc([N+](=O)[O-])cc4s3)CC2)c1", "note": "[CBK264089]", "% of control remaining": 108.352}, {"smiles": "N#Cc1cccc(S(=O)(=O)Nc2cccc(C(=O)O)c2)c1", "note": "[CBK155699]", "% of control remaining": 99.7981}, {"smiles": "Cc1cc(C)nc(NC(=N)NC2Cc3ccccc3C2)n1", "note": "[CBK287863]", "% of control remaining": 45.9334}, {"smiles": "Cc1ccc(C(C)(C)C(=O)N2CC(C(=O)N3CCN(C)CC3)C2)cc1", "note": "[CBK281371]", "% of control remaining": 114.869}, {"smiles": "O=C(CSCc1ccc([N+](=O)[O-])cc1)Nc1ccc(O)cc1C(=O)O", "note": "[CBK131710]", "% of control remaining": 146.912}, {"smiles": "O=C1N/C(=C/c2cccs2)C(=O)N1Cc1ccccc1F", "note": "[CBK265601]", "% of control remaining": 127.427}, {"smiles": "CCN(CC)c1nc2n(c(=O)n1)CCN2CC", "note": "[CBK027342]", "% of control remaining": 156.341}, {"smiles": "O=C(CSc1ccccc1)Nc1nccs1", "note": "[CBK288213]", "% of control remaining": 92.8877}, {"smiles": "CC(=O)N1CC(C)(C)c2ccccc21", "note": "[CBK003715]", "% of control remaining": 124.797}, {"smiles": "CCOC(=O)Nc1ccc2ccccc2n1", "note": "[CBK028207]", "% of control remaining": 166.32}, {"smiles": "Cc1ccc(OCCCC(=O)N2CCCc3c(cnn3C)C2)c(C)c1", "note": "[CBK285288]", "% of control remaining": 79.2233}]}]}
